Laboratory results taken from patent US20190025321A1.
No constants are given. Whether binding was seen depends on the method and setting. For part of these data: Binding seen in cells or lysates may run through a third protein. Some results given as binding are weak or reduced against the parent protein; the word gives no strength.

Chains of the proteins cited; added tags and fusions are not shown. Lines headed by an entry give the natural chain unless they say otherwise; changes in a name come on top.
UniProt Q9NXC5: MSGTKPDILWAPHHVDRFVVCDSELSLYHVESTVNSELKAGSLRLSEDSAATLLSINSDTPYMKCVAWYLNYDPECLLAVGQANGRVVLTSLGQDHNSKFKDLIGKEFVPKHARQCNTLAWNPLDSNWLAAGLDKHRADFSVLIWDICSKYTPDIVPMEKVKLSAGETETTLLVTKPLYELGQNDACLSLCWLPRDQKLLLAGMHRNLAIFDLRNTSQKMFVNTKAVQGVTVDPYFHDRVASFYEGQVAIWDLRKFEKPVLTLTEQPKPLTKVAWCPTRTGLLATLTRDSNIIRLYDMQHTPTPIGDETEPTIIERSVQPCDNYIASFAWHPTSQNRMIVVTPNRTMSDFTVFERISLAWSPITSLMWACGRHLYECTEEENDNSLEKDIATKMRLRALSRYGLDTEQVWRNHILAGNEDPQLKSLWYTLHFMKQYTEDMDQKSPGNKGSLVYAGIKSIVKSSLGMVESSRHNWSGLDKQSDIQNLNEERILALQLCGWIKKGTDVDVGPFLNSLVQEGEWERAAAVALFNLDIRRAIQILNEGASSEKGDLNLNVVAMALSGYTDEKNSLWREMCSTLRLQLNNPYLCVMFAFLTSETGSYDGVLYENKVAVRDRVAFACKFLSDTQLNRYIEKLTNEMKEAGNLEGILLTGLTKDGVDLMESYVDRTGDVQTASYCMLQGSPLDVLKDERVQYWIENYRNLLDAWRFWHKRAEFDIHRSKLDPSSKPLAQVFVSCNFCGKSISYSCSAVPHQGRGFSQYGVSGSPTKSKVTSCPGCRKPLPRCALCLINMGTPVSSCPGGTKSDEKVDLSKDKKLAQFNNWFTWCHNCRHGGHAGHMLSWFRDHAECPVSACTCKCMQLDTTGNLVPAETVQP
UniProt Q96S15: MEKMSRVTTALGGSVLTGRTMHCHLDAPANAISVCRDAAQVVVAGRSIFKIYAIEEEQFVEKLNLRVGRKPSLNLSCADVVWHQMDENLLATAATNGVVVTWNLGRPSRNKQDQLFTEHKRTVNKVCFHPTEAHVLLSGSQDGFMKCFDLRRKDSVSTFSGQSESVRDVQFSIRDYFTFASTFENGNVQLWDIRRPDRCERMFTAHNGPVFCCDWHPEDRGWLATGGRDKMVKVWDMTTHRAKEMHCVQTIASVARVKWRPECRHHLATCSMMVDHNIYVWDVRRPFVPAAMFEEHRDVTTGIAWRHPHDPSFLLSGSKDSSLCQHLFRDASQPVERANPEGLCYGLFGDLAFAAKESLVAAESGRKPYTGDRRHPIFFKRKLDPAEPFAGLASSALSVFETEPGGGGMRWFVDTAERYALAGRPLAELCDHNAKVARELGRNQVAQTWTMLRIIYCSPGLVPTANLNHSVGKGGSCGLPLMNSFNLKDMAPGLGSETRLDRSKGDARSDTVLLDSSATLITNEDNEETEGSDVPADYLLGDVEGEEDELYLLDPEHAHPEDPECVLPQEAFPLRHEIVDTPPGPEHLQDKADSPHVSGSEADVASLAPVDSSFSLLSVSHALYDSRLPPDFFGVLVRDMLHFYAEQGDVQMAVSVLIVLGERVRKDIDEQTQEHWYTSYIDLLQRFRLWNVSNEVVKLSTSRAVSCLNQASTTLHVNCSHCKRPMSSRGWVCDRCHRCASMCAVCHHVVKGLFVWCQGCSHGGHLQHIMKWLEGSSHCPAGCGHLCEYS
UniProt Q6PJI9: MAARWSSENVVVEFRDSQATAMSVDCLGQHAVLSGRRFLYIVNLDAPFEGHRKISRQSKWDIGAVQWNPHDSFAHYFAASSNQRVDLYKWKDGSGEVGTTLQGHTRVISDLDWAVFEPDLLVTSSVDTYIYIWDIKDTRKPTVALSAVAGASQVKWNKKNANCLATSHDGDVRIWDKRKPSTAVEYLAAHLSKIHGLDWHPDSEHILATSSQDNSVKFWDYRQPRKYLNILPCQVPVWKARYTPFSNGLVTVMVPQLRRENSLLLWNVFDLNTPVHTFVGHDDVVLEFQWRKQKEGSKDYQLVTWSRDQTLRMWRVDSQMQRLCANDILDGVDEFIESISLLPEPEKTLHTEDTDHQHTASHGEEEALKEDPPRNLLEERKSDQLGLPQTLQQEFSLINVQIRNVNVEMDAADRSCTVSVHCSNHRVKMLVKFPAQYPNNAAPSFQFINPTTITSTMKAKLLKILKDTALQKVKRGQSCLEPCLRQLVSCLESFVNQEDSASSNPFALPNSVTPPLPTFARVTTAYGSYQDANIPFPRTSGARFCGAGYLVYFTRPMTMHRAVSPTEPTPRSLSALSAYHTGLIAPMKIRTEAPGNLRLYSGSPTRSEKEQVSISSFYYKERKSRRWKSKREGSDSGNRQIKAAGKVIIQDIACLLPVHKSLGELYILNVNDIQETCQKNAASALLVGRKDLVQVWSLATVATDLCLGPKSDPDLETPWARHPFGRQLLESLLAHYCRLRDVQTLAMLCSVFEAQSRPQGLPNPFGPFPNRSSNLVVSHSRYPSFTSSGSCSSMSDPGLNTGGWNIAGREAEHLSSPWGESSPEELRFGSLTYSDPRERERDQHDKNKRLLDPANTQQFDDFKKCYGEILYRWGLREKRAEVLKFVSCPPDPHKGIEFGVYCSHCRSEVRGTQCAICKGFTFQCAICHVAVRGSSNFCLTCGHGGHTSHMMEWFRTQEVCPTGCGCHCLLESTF
UniProt P55735: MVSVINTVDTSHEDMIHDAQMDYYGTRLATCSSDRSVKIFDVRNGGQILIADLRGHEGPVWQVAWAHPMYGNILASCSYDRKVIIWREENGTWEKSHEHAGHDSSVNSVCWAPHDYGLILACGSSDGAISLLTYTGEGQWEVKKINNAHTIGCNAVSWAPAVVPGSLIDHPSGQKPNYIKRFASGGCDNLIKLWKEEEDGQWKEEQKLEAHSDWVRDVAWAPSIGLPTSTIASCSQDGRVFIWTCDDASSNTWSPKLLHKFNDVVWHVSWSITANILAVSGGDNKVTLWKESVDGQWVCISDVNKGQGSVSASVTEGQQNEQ
UniProt Q96EE3: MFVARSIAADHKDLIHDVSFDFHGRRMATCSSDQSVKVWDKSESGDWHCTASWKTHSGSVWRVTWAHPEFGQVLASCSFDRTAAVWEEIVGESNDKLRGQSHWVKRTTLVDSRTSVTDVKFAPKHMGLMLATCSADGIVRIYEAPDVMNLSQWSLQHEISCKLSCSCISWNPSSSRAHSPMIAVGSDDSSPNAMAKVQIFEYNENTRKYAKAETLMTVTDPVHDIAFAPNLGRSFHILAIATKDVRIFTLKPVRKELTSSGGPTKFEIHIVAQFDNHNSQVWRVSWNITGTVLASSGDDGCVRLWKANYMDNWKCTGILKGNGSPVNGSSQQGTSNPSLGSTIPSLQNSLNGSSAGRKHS

How the values were obtained:
[1] = target: T1, recombinant CASTOR1 (Cellular Arginine Sensor for mTORC1; protein encoded by the GATS protein-like 3 gene) (human) (UniProt Q8WTX7); test: co-immunoprecipitation, anti-HA IP from co-transfected HEK-293T cells, immunoblot; bait CASTOR1-HA, prey CASTOR1-FLAG
T1 sequence (looked up): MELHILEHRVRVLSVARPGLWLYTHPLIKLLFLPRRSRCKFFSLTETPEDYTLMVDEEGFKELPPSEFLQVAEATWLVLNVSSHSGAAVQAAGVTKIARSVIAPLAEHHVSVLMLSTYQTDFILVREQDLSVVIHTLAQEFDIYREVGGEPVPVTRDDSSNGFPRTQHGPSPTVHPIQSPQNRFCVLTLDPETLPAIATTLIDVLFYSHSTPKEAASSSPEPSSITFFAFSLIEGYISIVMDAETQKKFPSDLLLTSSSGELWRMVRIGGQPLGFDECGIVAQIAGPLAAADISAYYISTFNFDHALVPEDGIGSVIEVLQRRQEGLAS

[2] = target: T1, recombinant CASTOR1 (Cellular Arginine Sensor for mTORC1; protein encoded by the GATS protein-like 3 gene) (human); test: co-immunoprecipitation, anti-HA IP from HEK-293T cells starved of or restimulated with amino acids; bait CASTOR1-HA, prey CASTOR1-FLAG
[3] = target: T2, endogenous CASTOR2 (human) (UniProt A6NHX0); test: anti-HA co-immunoprecipitation, HEK-293T cells, immunoblot for endogenous CASTOR2 (FIG. 2C)
T2 sequence (looked up): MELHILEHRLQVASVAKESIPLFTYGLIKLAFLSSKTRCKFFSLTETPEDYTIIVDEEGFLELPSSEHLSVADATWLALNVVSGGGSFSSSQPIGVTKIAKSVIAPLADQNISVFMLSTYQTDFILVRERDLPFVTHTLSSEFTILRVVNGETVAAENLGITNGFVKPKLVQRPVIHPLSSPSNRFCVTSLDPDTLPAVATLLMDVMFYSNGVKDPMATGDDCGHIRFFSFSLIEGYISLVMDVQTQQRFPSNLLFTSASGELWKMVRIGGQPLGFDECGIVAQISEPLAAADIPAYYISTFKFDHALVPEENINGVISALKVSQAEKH

[4] = target: T1, recombinant CASTOR1 (Cellular Arginine Sensor for mTORC1; protein encoded by the GATS protein-like 3 gene) (human); test: co-immunoprecipitation, anti-HA IP from co-transfected HEK-293T cells starved of all amino acids 50 min; positive control lane
[5] = target: T3, recombinant CASTOR2 (protein encoded by the GATSL2 gene) (human) (UniProt A6NHX0); test: as above
T3 sequence (looked up): T2 sequence (looked up)

[6] = target: T1, recombinant CASTOR1 (Cellular Arginine Sensor for mTORC1; protein encoded by the GATS protein-like 3 gene) (human); test: anti-HA co-immunoprecipitation of differently tagged proteins, HEK-293T cells (FIG. 2A)
[7] = target: T3, recombinant CASTOR2 (protein encoded by the GATSL2 gene) (human); test: as above
[8] = target: T1, recombinant CASTOR1 (Cellular Arginine Sensor for mTORC1; protein encoded by the GATS protein-like 3 gene) (human); test: anti-HA co-immunoprecipitation, HEK-293T cells (FIG. 2A)
[9] = target: T3, recombinant CASTOR2 (protein encoded by the GATSL2 gene) (human); test: as above
[10] = target: T1, recombinant CASTOR1 (Cellular Arginine Sensor for mTORC1; protein encoded by the GATS protein-like 3 gene) (human); test: anti-HA co-immunoprecipitation, HEK-293T cells (FIG. 3A)
[11] = target: T3, recombinant CASTOR2 (protein encoded by the GATSL2 gene) (human); test: as above
[12] = target: T3, recombinant CASTOR2 (protein encoded by the GATSL2 gene) (human); test: SDS-PAGE and Coomassie blue staining of purified complexes from HEK-293T cells (FIG. 2D)
[13] = target: T3, recombinant CASTOR2 (protein encoded by the GATSL2 gene) (human); test: co-immunoprecipitation, anti-HA IP from HEK-293T cells starved of or restimulated with amino acids; bait CASTOR1-HA, prey CASTOR2-FLAG
[14] = target: T2, endogenous CASTOR2 (human); test: co-immunoprecipitation, anti-HA IP from transfected HEK-293T cells, immunoblot for endogenous CASTOR2
[15] = target: T3, recombinant CASTOR2 (protein encoded by the GATSL2 gene) (human); test: co-immunoprecipitation, anti-HA IP from co-transfected HEK-293T cells, immunoblot; bait CASTOR1-HA, prey CASTOR2-FLAG
[16] = target: T3, recombinant CASTOR2 (protein encoded by the GATSL2 gene) (human); test: co-purification from HEK-293T cells, SDS-PAGE with Coomassie blue staining
[17] = target: T2, endogenous CASTOR2 (human); test: anti-HA co-immunoprecipitation, HEK-293T cells (FIG. 2C)
[18] = target: T4, endogenous GATOR2 complex (Seh1L, WDR59, WDR24, Sec13 and Mios) (human) (UniProt Q9NXC5+Q96S15+Q6PJI9+P55735+Q96EE3); test: co-immunoprecipitation, anti-HA IP from transfected HEK-293T cells starved of all amino acids 50 min, immunoblot for endogenous mios
[19] = target: complete GATOR2 complex, recombinant (WDR24-FLAG, WDR59, mios, sec13, seh1L co-expressed) (UniProt Q96S15); test: displacement by co-expression, anti-FLAG immunoprecipitation, HEK-293T cells; competitor CASTOR1 (FIG. 7F)
[20] = target: T4, endogenous GATOR2 complex (Seh1L, WDR59, WDR24, Sec13 and Mios) (human); test: anti-HA co-immunoprecipitation, HEK-293T cells, immunoblot for mios (FIG. 1D)
[21] = target: T3, recombinant CASTOR2 (protein encoded by the GATSL2 gene) (human); test: co-immunoprecipitation, anti-HA IP from co-transfected HEK-293T cells, immunoblot; bait CASTOR2-HA, prey CASTOR2-FLAG
[22] = target: T4, endogenous GATOR2 complex (Seh1L, WDR59, WDR24, Sec13 and Mios) (human); test: anti-HA co-immunoprecipitation from HEK-293T cells growing in DMEM (FIG. 1D)
[23] = target: T5, endogenous CASTOR1 (human) (UniProt Q8WTX7); test: anti-HA co-immunoprecipitation, HEK-293T cells (FIG. 2B)
T5 sequence (looked up): T1 sequence (looked up)

[24] = target: complete GATOR2 complex, recombinant (WDR24-FLAG, WDR59, mios, sec13, seh1L co-expressed) (UniProt Q96S15); test: competition in co-immunoprecipitation: anti-FLAG IP of recombinant GATOR2 (WDR59-FLAG, WDR24, mios, sec13, seh1L), rising amount of myc-CASTOR2 cDNA; displaced protein HA-CASTOR1
[25] = target: T1, recombinant CASTOR1 (Cellular Arginine Sensor for mTORC1; protein encoded by the GATS protein-like 3 gene) (human); test: co-immunoprecipitation, anti-HA IP from co-transfected HEK-293T cells, immunoblot; bait CASTOR2-HA, prey CASTOR1-FLAG
[26] = target: T4, endogenous GATOR2 complex (Seh1L, WDR59, WDR24, Sec13 and Mios) (human); test: summary of the co-immunoprecipitation experiments
[27] = target: T5, endogenous CASTOR1 (human); test: co-immunoprecipitation, anti-HA IP from transfected HEK-293T cells, immunoblot for endogenous CASTOR1
[28] = target: T3, recombinant CASTOR2 (protein encoded by the GATSL2 gene) (human); test: co-immunoprecipitation, anti-HA IP from HEK-293T cells starved of or restimulated with amino acids; bait CASTOR2-HA, prey CASTOR2-FLAG
[29] = target: T1, recombinant CASTOR1 (Cellular Arginine Sensor for mTORC1; protein encoded by the GATS protein-like 3 gene) (human); test: co-purification from HEK-293T cells, SDS-PAGE with Coomassie blue staining
[30] = target: T4, endogenous GATOR2 complex (Seh1L, WDR59, WDR24, Sec13 and Mios) (human); test: anti-HA co-immunoprecipitation, HEK-293T cells, immunoblot (FIG. 1D)
[31] = target: T5, endogenous CASTOR1 (human); test: anti-HA co-immunoprecipitation, HEK-293T cells, immunoblot for endogenous CASTOR1 (FIG. 2B)
[32] = target: T4, endogenous GATOR2 complex (Seh1L, WDR59, WDR24, Sec13 and Mios) (human); test: co-immunoprecipitation, anti-FLAG IP of GATOR2 from a HEK-293T line with endogenously FLAG-tagged WDR59, immunoblot for endogenous CASTOR2
[33] = target: T4, endogenous GATOR2 complex (Seh1L, WDR59, WDR24, Sec13 and Mios) (human); test: immunoprecipitation with an anti-WDR24 antibody (anti-GSK3β as control), HEK-293T cells (FIG. 9B)
[34] = target: T4, endogenous GATOR2 complex (Seh1L, WDR59, WDR24, Sec13 and Mios) (human); test: anti-FLAG immunoprecipitation from HEK-293T cells with endogenously FLAG-tagged WDR59 (FIG. 3B)
[35] = target: T4, endogenous GATOR2 complex (Seh1L, WDR59, WDR24, Sec13 and Mios) (human); test: co-immunoprecipitation of endogenous proteins, IP with an anti-WDR24 antibody from HEK-293T cells starved of or restimulated with amino acids
[36] = target: complete GATOR2 complex, recombinant (WDR24-FLAG, WDR59, mios, sec13, seh1L co-expressed) (UniProt Q96S15); test: co-immunoprecipitation, anti-HA IP of recombinant GATOR2 (here WDR59-HA, WDR24, mios, sec13, seh1L) from HEK-293T lines with Cas9 and the named guide RNAs, starved of or restimulated with amino acids; blot labelled CASTOR2 without a tag

Measured: binding

B1: recombinant CASTOR1 (Cellular Arginine Sensor for mTORC1; protein encoded by the GATS protein-like 3 gene) (protein, human, UniProt Q8WTX7 1-329, looked up, not shown: small tags and cut ends)
chain: T1 sequence (looked up)
binds: [1] | [2] | [3] | [4] | [5] | [6] | [7] | [8] | [9] | [10] | [11] | [12] | [13] | [14] | [15] | [16] | [17]

B2: recombinant CASTOR2 (protein encoded by the GATSL2 gene) (protein, human, UniProt A6NHX0 1-329, looked up, not shown: small tags and cut ends)
chain: T2 sequence (looked up)
binds: [18] | [7] | [19] | [20] | [9] | [21] | [11] | [22] | [23] | [24] | [25] | [26] | [27] | [28] | [29] | [30] | [31]

B3: endogenous CASTOR2 (protein, human, UniProt A6NHX0 1-329, looked up)
chain: T2 sequence (looked up)
binds: [32] | [33] | [34] | [35] | [36]
